In the supplement of paper PMC7752906:
Where a name gives a salt, the structure may show the parent alone. Some of the results follow. Single values are uncertain here, since repeats match poorly.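 Test system: Schistosoma mansoni schistosomula, roughly 40 per well, imaged in bright field over time and compared with wells given 0.1% DMSO. Distance read-out: the paper calls a drug a hit when its Mahalanobis distance is at least 2.47, three standard deviations above the DMSO control mean. Degeneracy is the share of worms classified opaque.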

Each molecule was assayed on Schistosoma mansoni schistosomula (assay: Mahalanobis distance of static-rate-frequency phenotype descriptors from DMSO controls (dimensionless); higher = stronger phenotypic change versus DMSO). Conditions: 10 µM; 72 h.

| Compound | Mahalanobis distance |
| --- | --- |
| COc1ccc(C(=O)c2ccc(C)cc2)c(O)c1 [Mexeneone] | active: 2.85 |
| NC(=O)NC(=O)Cc1ccccc1 [Phenacemide] | inactive: 1.11 |
| CC(=O)[C@H]1CC[C@H]2[C@@H]3C[C@H](C)C4=CC(=O)CC[C@]4(C)[C@H]3[C@@H](O)C[C@]12C [Medrysone] | inactive: 2.15 |
| CCOC(=O)OC(C)OC1=C(C(=O)Nc2ccccn2)N(C)S(=O)(=O)c2ccccc21 (configuration not stated) [Ampiroxicam] | inactive: 2.24 |
| O=C(O)c1cc(-c2ccc(F)cc2F)ccc1O [Diflunisal] | inactive: 1.88 |
| CCCCNC(=O)NS(=O)(=O)c1ccc(C)cc1 [Tolbutamide] | inactive: 1.45 |
| CC(C)(C)NC[C@H](O)c1ccc(O)c(CO)c1 [Levalbuterol Hydrochloride] | inactive: 1.48 |
| O=S(=O)(O)CCS [Mesna] | inactive: 1.73 |
| CCn1cc(C(=O)O)c(=O)c2cnc(N3CCCC3)nc21 [Piromidic Acid] | inactive: 2 |
| CCCCCCCCCCCCC[N+](C)(C)Cc1ccccc1 [Benzalkonium Chloride] | active: 3.27 |
| CC(=O)Nc1ccc(CC(=O)O)cc1 [Actarit] | inactive: 1.6 |
| Cc1nc2n(c(=O)c1CCN1CCC(c3noc4cc(F)ccc34)CC1)CCCC2 [Risperidone] | inactive: 1.31 |
| CC(=O)OCC(=O)[C@@]12N=C(C)O[C@@H]1C[C@H]1[C@@H]3CCC4=CC(=O)C=C[C@]4(C)[C@H]3[C@@H](O)C[C@@]12C [Deflazacort] | active: 2.47 |
| OCc1cc(C(O)CNCCCCCCOCCCCc2ccccc2)ccc1O (configuration not stated) [Salmeterol] | active: 3.14 |
| CCCCOc1cc(C(=O)NCCN(CC)CC)c2ccccc2n1 [Dibucaine] | active: 3.55 |
| CC[C@H]1OC(=O)[C@H](C)C(=O)[C@H](C)[C@@H](O[C@@H]2O[C@H](C)C[C@H](N(C)C)[C@H]2O)[C@](C)(OC)C[C@@H](C)C(=O)[C@H](C)[C@H]2N(CCCCn3cnc(-c4cccnc4)c3)C(=O)O[C@]12C [Telithromycin] | active: 2.48 |
| O=P(O)(O)C(Cl)(Cl)P(=O)(O)O [Clodronic Acid] | inactive: 1.57 |
| O=C1CCc2cc(OCCCCc3nnnn3C3CCCCC3)ccc2N1 [Cilostazol] | active: 2.64 |
| CCS(=O)(=O)CCn1c([N+](=O)[O-])cnc1C [Tinidazole] | inactive: 2.17 |
| CC(C)NCC(O)COc1cccc2ccccc12 (configuration not stated) [Propranolol] | inactive: 2.1 |
| COC(=O)[C@@H]1[C@H]2C[C@H]3c4[nH]c5ccccc5c4CCN3C[C@@H]2CC[C@@H]1O [Yohimbine Hydrochloride] | active: 3.17 |
| COC(=O)[C@@H]1[C@H]2C[C@H]3c4[nH]c5ccccc5c4CCN3C[C@@H]2CC[C@@H]1O [Yohimbine] | active: 3.54 |
| CC1(C)NC(=O)N(c2ccc([N+](=O)[O-])c(C(F)(F)F)c2)C1=O [Nilutamide] | inactive: 1.77 |

Some of the entries so far, as comma-separated lines.
Compound,Mahalanobis distance
CC(=O)Nc1ccc(CC(=O)O)cc1 [Actarit],inactive: 1.6
Cc1nc2n(c(=O)c1CCN1CCC(c3noc4cc(F)ccc34)CC1)CCCC2 [Risperidone],inactive: 1.31
CC(=O)OCC(=O)[C@@]12N=C(C)O[C@@H]1C[C@H]1[C@@H]3CCC4=CC(=O)C=C[C@]4(C)[C@H]3[C@@H](O)C[C@@]12C [Deflazacort],active: 2.47

The results go on:

| Compound | Mahalanobis distance |
| --- | --- |
| CCCCOC(=O)c1ccc(N)cc1 [Butamben] | inactive: 1.96 |
| O=C(Nc1ccc(C(=O)O)c(O)c1)c1ccccc1 [Benzoylpas] | inactive: 1.8 |
| CCCCC1=NC2(CCCC2)C(=O)N1Cc1ccc(-c2ccccc2-c2nnn[nH]2)cc1 [Irbesartan] | inactive: 2.09 |
| CC[C@H]1OC(=O)[C@H](C)[C@@H](O[C@H]2C[C@@](C)(OC)[C@@H](O)[C@H](C)O2)[C@H](C)[C@@H](O[C@@H]2O[C@H](C)C[C@H](N(C)C)[C@H]2O)[C@](C)(OC)C[C@@H](C)C(=O)[C@H](C)[C@@H](O)[C@]1(C)O [Clarithromycin] | inactive: 2.15 |
| CC(Cc1ccccc1)(NC(=O)CN)c1ccccc1 (configuration not stated) [Remacemide Hydrochloride] | active: 2.65 |
| COc1ccc(Cc2cnc(N)nc2N)cc1OC [Diaveridine] | active: 2.89 |
| O=C(O)c1cc(=O)c2ccccc2o1 [Chromocarb] | inactive: 1.61 |
| S=C1SCN(Cc2ccccc2)CN1Cc1ccccc1 [sulbentine] | inactive: 1.74 |
| COc1cc(C(=O)NS(=O)(=O)c2ccccc2C)ccc1Cc1cn(C)c2ccc(NC(=O)OC3CCCC3)cc12 [Zafirlukast] | active: 2.83 |
| CN[C@H](CC(C)C)C(=O)N[C@H]1C(=O)N[C@@H](CC(N)=O)C(=O)N[C@H]2C(=O)N[C@H]3C(=O)N[C@H](C(=O)N[C@H](C(=O)O)c4cc(O)cc(O)c4-c4cc3ccc4O)[C@H](O)c3ccc(c(Cl)c3)Oc3cc2cc(c3O[C@@H]2O[C@H](CO)[C@@H](O)[C@H](O)[C@H]2O[C@H]2C[C@](C)(N)[C@H](O)[C@H](C)O2)Oc2ccc(cc2Cl)[C@H]1O [Vancomycin] | inactive: 1.61 |
| CN[C@H](CC(C)C)C(=O)N[C@H]1C(=O)N[C@@H](CC(N)=O)C(=O)N[C@H]2C(=O)N[C@H]3C(=O)N[C@H](C(=O)N[C@H](C(=O)O)c4cc(O)cc(O)c4-c4cc3ccc4O)[C@H](O)c3ccc(c(Cl)c3)Oc3cc2cc(c3O[C@@H]2O[C@H](CO)[C@@H](O)[C@H](O)[C@H]2O[C@H]2C[C@](C)(N)[C@H](O)[C@H](C)O2)Oc2ccc(cc2Cl)[C@H]1O [Vancomycin Hydrochloride] | inactive: 2.29 |
| O=C(CCCl)NCc1ccccc1 [Beclamide] | inactive: 1.5 |
| C=NC(C(=O)NC1C(=O)N2C1SC(C)(C)C2C(=O)O)c1ccccc1 (configuration not stated) [Metampicillin Sodium] | inactive: 1.6 |
| CC(C)COCC(CN(Cc1ccccc1)c1ccccc1)N1CCCC1 (configuration not stated) [Bepridil Hydrochloride] | inactive: 1.55 |
| CC[C@@]1(O)C(=O)OCc2c1cc1n(c2=O)Cc2cc3c([N+](=O)[O-])cccc3nc2-1 [Rubitecan] | inactive: 1.31 |
| CCC(CC)(CC(=O)Nc1cccc(/C=C/c2nc(C3CCC3)cs2)c1)C(=O)O [Cinalukast] | inactive: 1.56 |
| CN(C)CCC=C1c2ccccc2CCc2ccccc21 [Amitriptyline] | inactive: 2.38 |
| CS(=O)(=O)c1ccc(C2=C(c3ccccc3)C(=O)OC2)cc1 [Rofecoxib] | inactive: 1.88 |
| O=C(Nc1ccccc1)c1ccccc1O [Salicylanilide] | inactive: 1.87 |
| Cc1ncc([N+](=O)[O-])n1CC(O)CCl (configuration not stated) [Ornidazole] | active: 3.71 |
| N#Cc1ccc2[nH]cc(CCCCN3CCN(c4ccc5oc(C(N)=O)cc5c4)CC3)c2c1 [Vilazodone Hydrochloride] | active: 2.71 |
| CN1C(C(=O)Nc2ccccn2)=C(O)c2sccc2S1(=O)=O [Tenoxicam] | inactive: 1.47 |
| CN(C)c1ccc2nc3ccc(=[N+](C)C)cc-3sc2c1 [Methylene Blue] | inactive: 1.71 |

| Compound | Mahalanobis distance |
| --- | --- |
| Cc1c(C(N)=O)cc([N+](=O)[O-])cc1[N+](=O)[O-] [Dinitolmide] | inactive: 1.85 |
| C=C[C@H]1CN2CC[C@H]1C[C@@H]2[C@@H](O)c1ccnc2ccc(OC)cc12 [Quinidine] | active: 2.71 |
| C[C@]12CC[C@H]3C(=CCc4cc(O)ccc43)[C@@H]1CCC2=O [Equilin] | inactive: 1.7 |
| C[C@]12C=CC(=O)C=C1CC[C@@H]1[C@@H]2[C@@H](O)C[C@@]2(C)[C@H]1CC[C@]2(O)C(=O)COP(=O)(O)O [Prednisolone Sodium Phosphate] | inactive: 1.53 |
| CC(=O)c1ccc2c(c1)N(CCCN1CCC(CCO)CC1)c1ccccc1S2 [Piperacetazine] | inactive: 1.77 |
| CNCC[C@H](Oc1cccc2ccccc12)c1cccs1 [Duloxetine Hydrochloride] | inactive: 2.02 |
| CCCCC(CC)CN1CN(CC(CC)CCCC)CC(C)(N)C1 (configuration not stated) [hexetidine] | active: 3 |
| COC(=O)C1=C(C)NC(C)=C(C(=O)O[C@H]2CCN(Cc3ccccc3)C2)[C@H]1c1cccc([N+](=O)[O-])c1 [Barnidipine] | active: 4.12 |
| CCN(CC)CCOC(=O)C(c1ccccc1)C1CCCCC1 (configuration not stated) [Drofenine Hydrochloride] | active: 2.67 |
| COCC1=C(C(=O)OC(C)OC(=O)OC(C)C)N2C(=O)[C@@H](NC(=O)/C(=N\OC)c3csc(N)n3)[C@H]2SC1 (some centres not stated) [Cefpodoxime Proxetil] | inactive: 1.35 |
| CC(C)(Sc1cc(C(C)(C)C)c(O)c(C(C)(C)C)c1)Sc1cc(C(C)(C)C)c(O)c(C(C)(C)C)c1 [Probucol] | inactive: 1.45 |
| CCC(=O)c1ccc(O)cc1 [Paroxypropione] | inactive: 1.73 |
| Cn1ccnc1S [Thiamazole] | inactive: 1.76 |
| Nc1c(Br)cc(Br)cc1CN[C@H]1CC[C@H](O)CC1 [Ambroxol Hydrochloride] | inactive: 1.27 |
| Oc1ccc(Cl)c2cccnc12 [Cloxyquin] | active: 2.54 |
| CCCN(CCC)C(=O)C(CCC(=O)O)NC(=O)c1ccccc1 (configuration not stated) [Proglumide] | inactive: 1.65 |
| O=C1O[C@H](CO)[C@@H](O)[C@H](O)[C@H]1O [Gluconolactone] | inactive: 2.42 |
| CCCCCCCCCCC[C@@H](C[C@@H]1OC(=O)[C@H]1CCCCCC)OC(=O)[C@H](CC(C)C)NC=O [orlistat] | inactive: 2.18 |
| CC(C)(S)[C@@H](N)C(=O)O [Penicillamine] | inactive: 1.66 |
| O=C(O)C1CSCN1 (configuration not stated) [Timonacic] | inactive: 1.6 |
| CCC(=O)OCC(=O)[C@@]1(OC(=O)CC)[C@H](C)CC2C3C([C@@H](O)C[C@@]21C)[C@@]1(C)C=CC(=O)C=C1C[C@H]3Cl (some centres not stated) [Alclometazone Dipropionate] | inactive: 1.82 |
